# Measurements as given in PubChem BioAssay AID504834 (National Center for Advancing Translational Sciences (NCATS), 2011).
# Hit rate of the full screen: of about 320,000 compounds, about 22,000 (6.9%) were called active. Inconclusive results, whose numbers are uncertain, are shown with a selection of clear calls. Calls follow the shape of the dose curve; as a rule, active = well fitted inhibition curve with a large enough effect; inconclusive = small, poorly fitted or top-dose-only effect, or another doubt; inactive = no such curve, though single readings can be large or run the other way. Where the call is inconclusive, the potency comes from a doubtful curve fit. Where a SMILES comes first, the peptide text is derived from it. [ ]: non-standard residue; d: D form. The star is where a group is joined. Sta = CC(C)C[C@H](N)[C@@H](O)CC(=O)O; Isovaleryl = CC(C)CC(=O)*
# Assay: Primary qHTS for delayed death inhibitors of the malarial parasite plastid, 96 hour incubation
# Details: P. falciparum luciferase reporter growth; series mostly up to 28.7 µM
# Outline: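 Luminescence readout: decreased luciferase signal marks inhibited growth of reporter-expressing P. falciparum in infected red cells (2% hematocrit, 0.05% parasitemia final), exposed to compound two generations (96 h, 37 C, 5% CO2).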
# Potency is read from the fitted curve at half-maximal effect.
row,Structure (SMILES),Potency
1,COc1ccc(/C=C2\CCCC3C2=NN(C(=O)COC(=O)CNC(=O)c2ccccc2)C3c2ccc(OC)cc2)cc1 (stereo not given),"inconclusive: 18.5 µM [inhibitor, single point]"
2,COc1ccc(CN2CCC(n3nccc3NC(=O)C3CC3)CC2)c(OC)c1OC,"inconclusive: 18.5 µM [inhibitor, single point]"
3,COc1ccc(/C=C/C(=O)Nc2nonc2NC(C)=O)cc1,"inconclusive: 16.5 µM [inhibitor, single point]"
4,O=C(NCc1ccco1)c1ccc2c(c1)N(Cc1ccc(Cl)cc1)CCS2,"inconclusive: 18.5 µM [inhibitor, single point]"
5,CCOC(=O)c1cc(C)sc1/N=C/C1C(=O)CCCC1=O,inactive
6,COc1ccc(NC(=O)Cn2nnc3ccccc32)c([N+](=O)[O-])c1,"inconclusive: 9.28 µM [inhibitor, partial curve, poor fit]"
7,COc1ccc(NS(=O)(=O)c2ccc(N3CCCCC3)c(N)c2)cc1,"inconclusive: 8.28 µM [inhibitor, single point]"
8,NCCc1ccc(O)cc1,"inconclusive: 4.26 µM [inhibitor, partial curve]"
9,CC1CCCC(NCC(O)COC(c2ccc(F)cc2)c2ccc(F)cc2)C1C (stereo not given),"inconclusive: 1.47 µM [inhibitor, full curve]"
10,COc1cccc(-n2c(=O)c3c(C)c(C(=O)N(C)C)sc3n(CC(=O)NCC3CCCO3)c2=O)c1 (stereo not given),"inconclusive: 0.117 µM [inhibitor, full curve, poor fit]"
11,CC(NC(=O)CN1CCN(c2ccccc2F)CC1)c1ccccc1 (stereo not given),"inconclusive: 4.15 µM [inhibitor, single point]"
12,Cc1ccc(OCC(=O)Nc2ccc(Cl)cc2)c([N+](=O)[O-])n1,inactive
13,Nc1c(C(=O)c2ccccc2)sc2snc(SCC(=O)c3ccccc3)c12,inactive
14,S=C(Nc1ccccc1Cl)N(CCCN1CCOCC1)Cc1ccco1,inactive
15,O=C(NCc1ccc(N2CCCC2=O)cc1)NC1CCCCC1,"inconclusive: 10.4 µM [inhibitor, single point]"
16,N#CC1=C(N)Oc2cc(O)c(Cl)cc2C1c1cccnc1 (stereo not given),inactive
17,CCOc1ccccc1NC(=O)CN1C(=O)C(=O)N(Cc2ccco2)C1=O,inactive
18,CC1CCCC(C)N1C(=O)COC(=O)C1CCN(S(=O)(=O)c2c(Cl)cccc2Cl)CC1 (stereo not given),"inconclusive: 18.5 µM [inhibitor, single point]"
19,CCc1cc2c(-c3ccccc3)cc(=O)oc2cc1OC(=O)c1cccs1,inactive
20,Cc1cc(C)c(NC(=S)N(Cc2cccnc2)Cc2ccco2)c(C)c1,inactive
21,O=C(Nc1cccc(C(=O)O)c1)/C(=C\c1ccc(F)cc1)NC(=O)c1ccco1,"inconclusive: 18.5 µM [inhibitor, partial curve, poor fit]"
22,COc1ccc(Nc2nc(CC(C)=O)ns2)cc1,active: 2.62 µM
23,CC(=O)c1c(C)[nH]c(C(=O)CSc2nc3ccc(C)cc3[nH]2)c1C,"inconclusive: 18.5 µM [inhibitor, single point]"
24,CC(=O)Nc1cccc(-c2csc(N)n2)c1,"inconclusive: 18.5 µM [inhibitor, single point]"

# For convenience, part of the list above.
row,Structure (SMILES),Potency
12,Cc1ccc(OCC(=O)Nc2ccc(Cl)cc2)c([N+](=O)[O-])n1,inactive
13,Nc1c(C(=O)c2ccccc2)sc2snc(SCC(=O)c3ccccc3)c12,inactive
14,S=C(Nc1ccccc1Cl)N(CCCN1CCOCC1)Cc1ccco1,inactive
15,O=C(NCc1ccc(N2CCCC2=O)cc1)NC1CCCCC1,"inconclusive: 10.4 µM [inhibitor, single point]"
16,N#CC1=C(N)Oc2cc(O)c(Cl)cc2C1c1cccnc1 (stereo not given),inactive
17,CCOc1ccccc1NC(=O)CN1C(=O)C(=O)N(Cc2ccco2)C1=O,inactive
18,CC1CCCC(C)N1C(=O)COC(=O)C1CCN(S(=O)(=O)c2c(Cl)cccc2Cl)CC1 (stereo not given),"inconclusive: 18.5 µM [inhibitor, single point]"
19,CCc1cc2c(-c3ccccc3)cc(=O)oc2cc1OC(=O)c1cccs1,inactive
20,Cc1cc(C)c(NC(=S)N(Cc2cccnc2)Cc2ccco2)c(C)c1,inactive
21,O=C(Nc1cccc(C(=O)O)c1)/C(=C\c1ccc(F)cc1)NC(=O)c1ccco1,"inconclusive: 18.5 µM [inhibitor, partial curve, poor fit]"
22,COc1ccc(Nc2nc(CC(C)=O)ns2)cc1,active: 2.62 µM
23,CC(=O)c1c(C)[nH]c(C(=O)CSc2nc3ccc(C)cc3[nH]2)c1C,"inconclusive: 18.5 µM [inhibitor, single point]"
24,CC(=O)Nc1cccc(-c2csc(N)n2)c1,"inconclusive: 18.5 µM [inhibitor, single point]"

# The list continues.

row,Structure (SMILES),Potency
1,Cc1ccc(C(=O)NC(=S)Nc2ccc(N3CCOCC3)cc2)c(C)c1,"inconclusive: 14.7 µM [inhibitor, partial curve, poor fit]"
2,COc1ccc(C/C(O)=C(\C#N)c2nc3ccccc3s2)cc1,inactive
3,Clc1ccc2[nH]c3c(c2c1)CNCC3,"inconclusive: 7.38 µM [inhibitor, partial curve]"
4,CCc1ccc(CNC(=O)CCCC(=O)n2nc(C)c3ccccc32)cc1,inactive
5,CCc1ccc(NS(=O)(=O)c2ccc3[nH]cc(C(=O)N4CCCCC4)c(=O)c3c2)cc1,inactive
6,COc1c(F)c(F)c(C(=O)O)c(Nc2cccc(C)c2)c1F,"inconclusive: 20.8 µM [inhibitor, partial curve, poor fit]"
7,COc1ccc(C(=O)Nc2c(N)nc(SCC(=O)N3CCCCCC3)[nH]c2=O)cc1OC,"inconclusive: 3.7 µM [inhibitor, single point]"
8,Cc1ccc(NC(=O)CCNS(=O)(=O)c2ccc(Br)cc2)cc1S(=O)(=O)N1CCOCC1,"inconclusive: 13.1 µM [inhibitor, single point]"
9,CCOc1cc(CNCCCN2CCOCC2)cc(Cl)c1OCC(=O)NC(C)(C)C,inactive
10,CCCOc1ccc(NC(=O)C2CC(=O)N/C(=N/N=C(C)/C=C/c3ccc(N(C)C)cc3)S2)cc1 (stereo not given),"inconclusive: 0.415 µM [inhibitor, partial curve, poor fit]"
11,COc1ccc(N2C(N)=NC(N)=NC2(C)C)cc1,"inconclusive: 0.131 µM [inhibitor, full curve]"
12,COc1ccc(OC)c(S(=O)(=O)Nc2ccc(Oc3ccccc3)cc2)c1,inactive
13,C=C(C)c1cccc(C(C)(C)NC(=O)Nc2cc(C)ccn2)c1,"inconclusive: 16.5 µM [inhibitor, single point]"
14,NC(=O)C1CCN(C(=O)c2ccc(F)c(S(=O)(=O)N3CCOCC3)c2)CC1,inactive
15,COc1ccc(CN(Cc2cccnc2)S(=O)(=O)c2ccc(-n3cnnn3)c(C)c2)cc1OC,"inconclusive: 4.65 µM [inhibitor, partial curve, poor fit]"
16,Nc1n[nH]c(-c2ccccc2)n1,"inconclusive: 0.0828 µM [inhibitor, full curve, poor fit]"
17,Cc1cc(Br)ccc1OCCN1CCCC1,"inconclusive: 18.5 µM [inhibitor, single point]"
18,CCCCCCCCOC(=O)C[N+](C)(C)C/C=C(/C)Cl,active: 4.15 µM
19,O=C1C2C3c4ccccc4C(Br)(c4ccccc43)C2C(=O)N1c1ccccc1O (stereo not given),"inconclusive: 13.1 µM [inhibitor, single point]"
20,O=C(C1CCCN(Cc2ccccc2F)C1)N1CCCC1 (stereo not given),inactive
21,O=C(COC(=O)c1ccc[nH]c1=O)NCC12CC3CC(CC(C3)C1)C2,inactive
22,CC(=O)c1cc(CN2CCCCC2)cc(OC(C)C)c1,inactive
23,CCn1c(COc2ccc(=O)n(-c3ccccc3)n2)nnc1SCc1ccc(C)cc1,"inconclusive: 0.465 µM [inhibitor, full curve, poor fit]"
24,COc1cccc(NC(=S)NN2C(C)CCCC2C)c1 (stereo not given),"inconclusive: 10.4 µM [inhibitor, single point]"

# Individual results from the entries so far:
# Entry of NC(=O)C1CCN(C(=O)c2ccc(F)c(S(=O)(=O)N3CCOCC3)c2)CC1 under Potency: inactive
# Entry of CCc1ccc(CNC(=O)CCCC(=O)n2nc(C)c3ccccc32)cc1 under Potency: inactive

# Next part.

row,Structure (SMILES),Potency
1,NS(=O)(=O)c1cccc(NC(=O)CSc2nnc(-c3ccccc3F)n2C2CC2)c1,inactive
2,CC(C)COC(=O)n1c(=O)oc2ccc(S(=O)(=O)N3CCCCC3)cc21,"inconclusive: 0.465 µM [inhibitor, full curve, poor fit]"
3,O=C(c1cccc([N+](=O)[O-])c1)N1CCCC(C(=O)N2CCc3ccccc3C2)C1 (stereo not given),inactive
4,O=C(c1ccc2c(c1)OCCO2)N1CCN(S(=O)(=O)c2c(F)cccc2F)CC1,"inconclusive: 4.15 µM [inhibitor, single point]"
5,CCC(C)n1c(=S)[nH]c2c(sc3ccc([N+](=O)[O-])cc32)c1=O (stereo not given),"inconclusive: 8.28 µM [inhibitor, partial curve]"
6,CC(C)CN(/C=N/c1sc2c(c1C#N)CCCCC2)CC(C)C,"inconclusive: 11.7 µM [inhibitor, single point]"
7,C=CCn1c(-c2ccccc2)c[nH]c1=S,"inconclusive: 18.5 µM [inhibitor, single point]"
8,Cc1nc(NC(=O)CSc2nnnn2C)sc1C,inactive
9,CCCS(=O)(=O)N1CCC(C(=O)N2CCC3(CC2)OCCO3)CC1,"inconclusive: 13.1 µM [inhibitor, partial curve]"
10,O=C1CSC(=S)N1,inactive
11,O=C(CSc1nnc(CNC(=O)c2c(F)cccc2Cl)o1)Nc1ccccc1,inactive
12,CCN1CCN(C(=O)c2cc(COc3c(C)cccc3C)on2)CC1,"inconclusive: 11.7 µM [inhibitor, single point]"
13,COc1ccc(OC2C(=O)N(Cc3ccc(F)cc3)C2c2cc(OC)c(OC)c(OC)c2)cc1 (stereo not given),inactive
14,COc1ccc2nc3cc(Cl)ccc3c(C#N)c2c1,"inconclusive: 10.4 µM [inhibitor, partial curve, poor fit]"
15,CCC(C)Sc1cc(C(F)(F)F)c(C(=O)Nc2ccc(Cl)cc2)cn1 (stereo not given),"inconclusive: 10.4 µM [inhibitor, single point]"
16,COCCNC(=O)C(OC(=O)c1cc2oc(C)cc2n1C)C(C)C (stereo not given),"inconclusive: 1.47 µM [inhibitor, full curve]"
17,CC(C)CC(=O)N[C@H](C(=O)N[C@H](C(=O)N[C@@H](CC(C)C)[C@@H](O)CC(=O)N[C@@H](C)C(=O)N[C@@H](CC(C)C)[C@@H](O)CC(=O)O)C(C)C)C(C)C (Isovaleryl-VV[Sta]A[Sta]-OH),"inconclusive: 9.28 µM [inhibitor, partial curve, poor fit]"
18,COc1cc(OC)c(OC)cc1CN1CCN(Cc2ccc(C(F)(F)F)cc2)CC1,inactive
19,Nc1nc2ccccc2n1Cc1ccc(Cl)c(Cl)c1,"inconclusive: 11.7 µM [inhibitor, single point]"
20,CN(c1ccccc1)S(=O)(=O)c1ccc(C(=O)Nc2nnc(C3=COCCO3)o2)cc1,"inconclusive: 1.65 µM [inhibitor, partial curve, poor fit]"
21,CC(C)CC(=O)NC(=S)Nc1ccccc1N1CCCC1,"inconclusive: 3.29 µM [inhibitor, partial curve, poor fit]"
22,O=C(NNC(=O)c1ccccc1C(=O)O)c1ccc(S(=O)(=O)N2CCCCC2)cc1,"inconclusive: 7.38 µM [inhibitor, partial curve]"
